Results reported in US20070065878A1.
These are yes or no findings as the source states them, for the method shown. Some binding calls cover weakened binding; strength is not graded here.

Target: T1, streptavidin-binding peptide (…)
T1 sequence (peptide): WCHPMWEVMCLR
Experiment: flow cytometry labeling of E. coli displaying the dual-signal CPX scaffold, SAPE 50 nM

Substance: Streptavidin-conjugated phycoerythrin (from UniProt P22629 37-163)
- binding: binds
